The other results are listed elsewhere or left out. The calls rarely recur for the same compound in another form.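 Kinases were expressed as nanoluciferase fusions in K562 cells and luminescence was read every 4 h between 2 and 18 h as percent of control, DMSO set to 100% and a positive control to 0%. A time point counts as decreased when the signal drops significantly (2 sigma). The hit call is the authors' own, does not follow from the count of time points alone, and its rule is not shown.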
Legend:
Conditions in all cases: K562; 2-18 h
[1] = biological target: STK38 (UniProt Q15208); assay: kinase-Nluc reporter destabilization hit call (1 = scored as downregulated) (binary); higher = compound decreases kinase abundance
[2] = biological target: SYK (UniProt P43405); assay: as above
[3] = biological target: TEC (UniProt P42680); assay: as above
[4] = biological target: TYK2 (UniProt P29597); assay: as above
[5] = biological target: ULK3 (UniProt Q6PHR2); assay: as above
[6] = biological target: YES1 (UniProt P07947); assay: as above
[7] = biological target: ZAK (UniProt Q9NYL2); assay: as above
[8] = biological target: ZAP70 (UniProt P43403); assay: as above
[9] = biological target: ABL1 (UniProt P00519); assay: number of time points (of 5) at which kinase-Nluc abundance scored as decreased, DMSO-normalised (count); higher = more persistent destabilization
[10] = biological target: AKT1 (UniProt P31749); assay: as above

Protein sequences, listed by entry. Tags and fused reporters are not part of them. Lines headed by an entry give the natural chain unless they say otherwise; changes in a name come on top.
UniProt Q15208: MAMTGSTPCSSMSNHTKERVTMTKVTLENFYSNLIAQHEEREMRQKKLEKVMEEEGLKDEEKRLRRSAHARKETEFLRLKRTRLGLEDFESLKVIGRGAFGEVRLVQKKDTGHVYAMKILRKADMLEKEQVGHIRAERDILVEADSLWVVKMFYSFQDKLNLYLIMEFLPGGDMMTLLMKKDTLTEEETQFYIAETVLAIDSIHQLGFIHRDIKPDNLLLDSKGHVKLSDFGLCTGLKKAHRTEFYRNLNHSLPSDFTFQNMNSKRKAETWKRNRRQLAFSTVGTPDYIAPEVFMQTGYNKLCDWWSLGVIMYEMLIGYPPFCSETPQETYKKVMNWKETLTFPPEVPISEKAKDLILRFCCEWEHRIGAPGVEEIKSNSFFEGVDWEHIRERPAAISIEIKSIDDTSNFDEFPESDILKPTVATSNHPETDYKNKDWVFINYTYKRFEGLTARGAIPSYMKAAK
UniProt P42680: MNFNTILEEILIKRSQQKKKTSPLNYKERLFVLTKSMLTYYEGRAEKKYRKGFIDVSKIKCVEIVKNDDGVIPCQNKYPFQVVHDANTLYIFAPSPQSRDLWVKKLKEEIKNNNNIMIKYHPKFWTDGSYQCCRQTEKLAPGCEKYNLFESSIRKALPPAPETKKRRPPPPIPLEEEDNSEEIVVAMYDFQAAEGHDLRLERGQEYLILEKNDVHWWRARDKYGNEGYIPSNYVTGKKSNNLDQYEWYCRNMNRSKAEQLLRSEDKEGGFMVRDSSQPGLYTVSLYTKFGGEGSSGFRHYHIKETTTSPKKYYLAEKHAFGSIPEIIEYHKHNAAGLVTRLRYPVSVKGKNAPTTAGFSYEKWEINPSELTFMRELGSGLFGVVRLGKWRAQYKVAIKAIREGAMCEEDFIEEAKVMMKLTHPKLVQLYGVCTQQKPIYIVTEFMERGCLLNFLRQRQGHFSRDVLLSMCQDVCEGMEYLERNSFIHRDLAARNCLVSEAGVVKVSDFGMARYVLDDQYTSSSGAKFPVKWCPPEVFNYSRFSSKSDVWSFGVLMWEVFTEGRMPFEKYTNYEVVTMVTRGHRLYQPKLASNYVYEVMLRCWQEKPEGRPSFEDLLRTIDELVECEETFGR
UniProt P29597: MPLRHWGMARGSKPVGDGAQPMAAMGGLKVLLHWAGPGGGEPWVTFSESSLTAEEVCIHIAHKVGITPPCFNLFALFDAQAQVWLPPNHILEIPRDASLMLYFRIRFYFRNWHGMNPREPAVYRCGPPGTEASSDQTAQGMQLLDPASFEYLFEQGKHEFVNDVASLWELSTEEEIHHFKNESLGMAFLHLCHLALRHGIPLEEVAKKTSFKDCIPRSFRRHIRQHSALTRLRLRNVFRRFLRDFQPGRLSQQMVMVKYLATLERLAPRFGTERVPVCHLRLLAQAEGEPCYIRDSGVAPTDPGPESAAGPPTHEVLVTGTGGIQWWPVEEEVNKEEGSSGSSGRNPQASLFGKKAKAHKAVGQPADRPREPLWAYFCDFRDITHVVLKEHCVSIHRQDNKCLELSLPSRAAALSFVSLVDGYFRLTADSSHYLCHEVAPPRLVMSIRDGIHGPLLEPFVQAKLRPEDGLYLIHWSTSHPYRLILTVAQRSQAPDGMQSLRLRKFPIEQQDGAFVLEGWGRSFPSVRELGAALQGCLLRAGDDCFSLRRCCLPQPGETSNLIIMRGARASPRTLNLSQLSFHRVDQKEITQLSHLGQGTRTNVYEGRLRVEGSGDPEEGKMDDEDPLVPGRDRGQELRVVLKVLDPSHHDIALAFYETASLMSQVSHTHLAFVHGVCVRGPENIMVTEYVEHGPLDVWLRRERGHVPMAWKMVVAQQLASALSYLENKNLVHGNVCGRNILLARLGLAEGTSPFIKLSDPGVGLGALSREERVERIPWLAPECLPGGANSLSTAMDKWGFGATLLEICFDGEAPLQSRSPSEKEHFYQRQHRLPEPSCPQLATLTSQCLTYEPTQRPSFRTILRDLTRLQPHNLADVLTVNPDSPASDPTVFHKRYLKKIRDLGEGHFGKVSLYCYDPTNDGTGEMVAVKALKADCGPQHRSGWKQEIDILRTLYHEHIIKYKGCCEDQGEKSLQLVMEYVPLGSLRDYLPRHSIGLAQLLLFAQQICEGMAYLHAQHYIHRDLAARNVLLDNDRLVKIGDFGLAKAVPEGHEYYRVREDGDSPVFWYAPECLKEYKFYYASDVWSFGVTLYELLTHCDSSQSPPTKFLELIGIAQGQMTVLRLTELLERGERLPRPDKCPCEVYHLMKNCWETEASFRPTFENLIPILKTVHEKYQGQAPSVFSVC
UniProt Q6PHR2: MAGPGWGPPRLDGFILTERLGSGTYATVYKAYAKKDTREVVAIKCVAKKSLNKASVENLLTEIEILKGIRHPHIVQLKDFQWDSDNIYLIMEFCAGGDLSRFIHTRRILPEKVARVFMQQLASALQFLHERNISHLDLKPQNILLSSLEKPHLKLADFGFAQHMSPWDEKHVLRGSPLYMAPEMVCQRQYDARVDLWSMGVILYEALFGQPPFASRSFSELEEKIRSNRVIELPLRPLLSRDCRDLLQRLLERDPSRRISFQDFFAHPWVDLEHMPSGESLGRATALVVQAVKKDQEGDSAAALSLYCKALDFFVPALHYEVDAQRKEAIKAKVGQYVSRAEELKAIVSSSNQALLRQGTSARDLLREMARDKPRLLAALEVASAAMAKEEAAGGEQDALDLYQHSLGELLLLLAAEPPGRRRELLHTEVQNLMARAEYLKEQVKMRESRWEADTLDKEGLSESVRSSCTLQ
UniProt P07947, whole entry, looked up: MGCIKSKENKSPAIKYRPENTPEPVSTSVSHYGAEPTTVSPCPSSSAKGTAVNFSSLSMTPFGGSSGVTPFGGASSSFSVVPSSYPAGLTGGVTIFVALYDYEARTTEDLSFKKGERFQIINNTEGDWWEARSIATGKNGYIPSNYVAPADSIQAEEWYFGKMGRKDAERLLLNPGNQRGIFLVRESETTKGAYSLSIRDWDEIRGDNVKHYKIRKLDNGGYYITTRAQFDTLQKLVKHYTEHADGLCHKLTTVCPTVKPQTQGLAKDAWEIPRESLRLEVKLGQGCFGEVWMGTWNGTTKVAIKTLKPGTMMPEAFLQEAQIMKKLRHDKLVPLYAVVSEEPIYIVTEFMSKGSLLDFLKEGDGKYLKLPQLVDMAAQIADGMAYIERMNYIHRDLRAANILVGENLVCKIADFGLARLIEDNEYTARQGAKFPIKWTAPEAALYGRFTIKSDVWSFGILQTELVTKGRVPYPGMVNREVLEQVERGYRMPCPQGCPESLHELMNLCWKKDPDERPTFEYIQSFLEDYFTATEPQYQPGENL
UniProt P43403: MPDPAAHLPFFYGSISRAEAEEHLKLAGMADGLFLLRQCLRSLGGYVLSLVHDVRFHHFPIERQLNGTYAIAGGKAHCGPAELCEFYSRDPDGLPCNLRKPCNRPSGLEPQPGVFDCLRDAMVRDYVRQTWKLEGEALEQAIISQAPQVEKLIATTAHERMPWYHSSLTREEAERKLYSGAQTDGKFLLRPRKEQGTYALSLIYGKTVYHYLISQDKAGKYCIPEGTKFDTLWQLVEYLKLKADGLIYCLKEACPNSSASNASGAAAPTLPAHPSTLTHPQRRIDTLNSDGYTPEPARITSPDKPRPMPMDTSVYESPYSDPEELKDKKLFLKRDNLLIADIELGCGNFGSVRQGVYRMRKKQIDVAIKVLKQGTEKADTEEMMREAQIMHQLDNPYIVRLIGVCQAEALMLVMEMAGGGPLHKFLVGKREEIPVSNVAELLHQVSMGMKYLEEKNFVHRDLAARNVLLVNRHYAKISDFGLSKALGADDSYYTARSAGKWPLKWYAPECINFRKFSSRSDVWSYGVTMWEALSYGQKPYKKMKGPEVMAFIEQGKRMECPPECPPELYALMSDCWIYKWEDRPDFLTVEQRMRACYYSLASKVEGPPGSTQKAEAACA
UniProt P00519, whole entry: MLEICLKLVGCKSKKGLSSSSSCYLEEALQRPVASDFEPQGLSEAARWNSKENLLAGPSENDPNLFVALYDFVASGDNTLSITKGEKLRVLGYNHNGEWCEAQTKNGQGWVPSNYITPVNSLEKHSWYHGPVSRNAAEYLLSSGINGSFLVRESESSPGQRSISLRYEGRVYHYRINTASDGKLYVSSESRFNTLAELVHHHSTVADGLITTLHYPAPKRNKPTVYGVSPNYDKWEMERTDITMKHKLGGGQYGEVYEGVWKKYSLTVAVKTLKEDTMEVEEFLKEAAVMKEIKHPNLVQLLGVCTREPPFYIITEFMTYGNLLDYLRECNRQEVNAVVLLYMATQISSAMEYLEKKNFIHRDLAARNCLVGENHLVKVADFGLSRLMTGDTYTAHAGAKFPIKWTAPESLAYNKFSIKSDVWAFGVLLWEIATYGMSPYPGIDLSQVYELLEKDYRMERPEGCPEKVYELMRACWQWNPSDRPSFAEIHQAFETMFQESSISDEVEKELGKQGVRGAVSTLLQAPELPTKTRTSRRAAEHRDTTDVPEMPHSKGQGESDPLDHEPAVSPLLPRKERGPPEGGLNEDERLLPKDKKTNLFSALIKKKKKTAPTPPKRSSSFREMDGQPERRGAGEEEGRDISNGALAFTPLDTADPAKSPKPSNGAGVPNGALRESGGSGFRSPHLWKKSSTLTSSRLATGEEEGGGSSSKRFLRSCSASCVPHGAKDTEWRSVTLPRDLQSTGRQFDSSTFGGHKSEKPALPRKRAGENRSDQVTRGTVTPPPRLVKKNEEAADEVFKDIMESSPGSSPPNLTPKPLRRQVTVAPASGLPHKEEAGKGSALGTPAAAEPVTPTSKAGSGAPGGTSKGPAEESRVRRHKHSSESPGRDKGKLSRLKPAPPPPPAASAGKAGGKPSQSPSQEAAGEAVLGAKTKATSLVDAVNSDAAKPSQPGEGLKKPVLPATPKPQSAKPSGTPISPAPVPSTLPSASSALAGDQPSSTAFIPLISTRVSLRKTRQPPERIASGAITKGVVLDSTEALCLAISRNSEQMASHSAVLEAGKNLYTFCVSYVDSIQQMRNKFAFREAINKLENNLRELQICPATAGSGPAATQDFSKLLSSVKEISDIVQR
UniProt P31749: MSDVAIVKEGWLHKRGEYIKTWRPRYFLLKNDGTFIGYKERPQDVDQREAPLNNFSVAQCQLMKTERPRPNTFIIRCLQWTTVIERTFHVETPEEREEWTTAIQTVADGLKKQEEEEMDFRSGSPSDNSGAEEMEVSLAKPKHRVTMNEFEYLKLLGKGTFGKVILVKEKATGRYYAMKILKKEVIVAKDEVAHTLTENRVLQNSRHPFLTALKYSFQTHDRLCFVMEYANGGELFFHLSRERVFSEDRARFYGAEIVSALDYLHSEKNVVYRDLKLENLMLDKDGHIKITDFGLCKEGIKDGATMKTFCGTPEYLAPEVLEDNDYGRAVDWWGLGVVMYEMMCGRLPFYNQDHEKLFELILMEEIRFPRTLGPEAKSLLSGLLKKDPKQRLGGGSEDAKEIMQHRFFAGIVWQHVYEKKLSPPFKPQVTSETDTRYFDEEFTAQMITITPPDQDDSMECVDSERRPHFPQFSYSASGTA

| Compound | kinase-Nluc reporter destabilization hit call [1] | kinase-Nluc reporter destabilization hit call [2] | kinase-Nluc reporter destabilization hit call [3] | kinase-Nluc reporter destabilization hit call [4] | kinase-Nluc reporter destabilization hit call [5] | kinase-Nluc reporter destabilization hit call [6] | kinase-Nluc reporter destabilization hit call [7] | kinase-Nluc reporter destabilization hit call [8] | number of time points [9] | number of time points [10] |
| --- | --- | --- | --- | --- | --- | --- | --- | --- | --- | --- |
| C=CC(=O)Nc1cc(Nc2ncc(Cl)c(-c3c[nH]c4ccccc34)n2)c(OC)cc1N(C)CCN(C)C [Mutant EGFR inhibitor] (2.5 µM) | inactive: 0 | inactive: 0 | inactive: 0 | inactive: 0 | inactive: 0 | inactive: 0 | inactive: 0 | inactive: 0 | 2 | 0 |
| Cc1cc(CN2CCN(c3c(Br)cnc4nc(-c5ccc(N6CCN(C)CC6)cc5)[nH]c34)CC2)no1 (2.5 µM) | inactive: 0 | inactive: 0 | inactive: 0 | inactive: 0 | inactive: 0 | inactive: 0 | inactive: 0 | inactive: 0 | 0 | 0 |
| CC(C)(C)c1nc(-c2cccc(NS(=O)(=O)c3c(F)cccc3F)c2F)c(-c2ccnc(N)n2)s1 [Dabrafenib] (2.5 µM) | inactive: 0 | inactive: 0 | inactive: 0 | inactive: 0 | inactive: 0 | inactive: 0 | inactive: 0 | inactive: 0 | 0 | 0 |
| FC(F)(F)c1ccc(CNc2ccc(Cc3c[nH]c4ncccc34)cn2)cc1 (10 µM) | inactive: 0 | inactive: 0 | inactive: 0 | inactive: 0 | inactive: 0 | inactive: 0 | inactive: 0 | inactive: 0 | 0 | 0 |
| CCOC(=O)N1CCN(C(=O)[C@H](Cc2cccc(C(=N)N)c2)NS(=O)(=O)c2c(C(C)C)cc(C(C)C)cc2C(C)C)CC1 (10 µM) | inactive: 0 | inactive: 0 | inactive: 0 | inactive: 0 | inactive: 0 | inactive: 0 | inactive: 0 | inactive: 0 | 0 | 0 |
| CC[C@@H](Oc1nc(Oc2cc(C)cc(-c3cccc(CN)c3)c2)c(F)cc1F)C(=O)O (10 µM) | inactive: 0 | inactive: 0 | inactive: 0 | inactive: 0 | inactive: 0 | inactive: 0 | inactive: 0 | inactive: 0 | 0 | 0 |
| CN(C)CCCOc1ccc(-c2ccc3ncc4c(c3c2)n(C2CCOCC2)c(=O)n4C)cn1 (2 µM) | inactive: 0 | inactive: 0 | inactive: 0 | inactive: 0 | inactive: 0 | inactive: 0 | inactive: 0 | inactive: 0 | 0 | 0 |
| C[C@@H](c1ccc(-c2ccccc2)c(F)c1)c1cc(NC(=N)N2CCOCC2)on1 [Rimacalib] (10 µM) | inactive: 0 | inactive: 0 | inactive: 0 | inactive: 0 | inactive: 0 | inactive: 0 | inactive: 0 | inactive: 0 | 0 | 0 |
| Nc1ncnc2c1c(-c1cccc(OCc3ccccc3)c1)cn2C1CC(CN2CCC2)C1 (stereo not given) (2.5 µM) | inactive: 0 | inactive: 0 | inactive: 0 | inactive: 0 | inactive: 0 | inactive: 0 | inactive: 0 | inactive: 0 | 3 | 0 |
| Cc1ccc2nc(NCCN)c3ncc(C)n3c2c1 (2.5 µM) | inactive: 0 | inactive: 0 | inactive: 0 | inactive: 0 | inactive: 0 | inactive: 0 | inactive: 0 | inactive: 0 | 0 | 0 |
| O=C1Nc2ccc(C(=O)c3ccco3)cc2C1=Cc1cc(Cl)c(O)c(Cl)c1 (2.5 µM) | inactive: 0 | inactive: 0 | inactive: 0 | inactive: 0 | inactive: 0 | inactive: 0 | inactive: 0 | inactive: 0 | 0 | 0 |
| Cc1c(NC(=O)c2cccn(-c3ccc(F)cc3)c2=O)ccc(Oc2ccnc(NC(=O)C3CC3)c2)c1C (2 µM) | inactive: 0 | inactive: 0 | inactive: 0 | inactive: 0 | inactive: 0 | inactive: 0 | inactive: 0 | inactive: 0 | 1 | 0 |
| COc1cc2c(N3CCN(C(=O)Nc4ccc(OC(C)C)cc4)CC3)ncnc2cc1OCCCN1CCCCC1 [Tandutinib] (10 µM) | inactive: 0 | inactive: 0 | inactive: 0 | inactive: 0 | inactive: 0 | inactive: 0 | inactive: 0 | inactive: 0 | 0 | 0 |
| CCN1CCN(Cc2ccc(Nc3ncc(F)c(-c4cc(F)c5nc(C)n(C(C)C)c5c4)n3)nc2)CC1 [Abemaciclib (methanesulfonate)] (10 µM) | inactive: 0 | inactive: 0 | inactive: 0 | inactive: 0 | inactive: 0 | inactive: 0 | inactive: 0 | inactive: 0 | 2 | 0 |
| CC1(C)C(O[C@@H]2OC[C@@H](O)[C@H](O)[C@H]2O)CC[C@]23CC24CC[C@]2(C)[C@@H]([C@@]5(C)CC[C@@H](C(C)(C)O)O5)[C@H](O)C[C@@]2(C)C4C[C@@H](O[C@@H]2O[C@H](CO)[C@@H](O)[C@H](O)[C@H]2O)C13 (stereo not given in full) [Astragaloside IV] (10 µM) | inactive: 0 | inactive: 0 | inactive: 0 | inactive: 0 | inactive: 0 | inactive: 0 | inactive: 0 | inactive: 0 | 0 | 0 |
| CCN1CCC(n2cc(CNc3cc(Cl)c4ncc(C#N)c(Nc5ccc(F)c(Cl)c5)c4c3)nn2)CC1 [Cot inhibitor-2] (2.5 µM) | inactive: 0 | inactive: 0 | inactive: 0 | inactive: 0 | inactive: 0 | inactive: 0 | inactive: 0 | inactive: 0 | 0 | 0 |

An excerpt from further up, for reference:

| Compound | kinase-Nluc reporter destabilization hit call [1] | kinase-Nluc reporter destabilization hit call [2] | kinase-Nluc reporter destabilization hit call [3] | kinase-Nluc reporter destabilization hit call [4] | kinase-Nluc reporter destabilization hit call [5] | kinase-Nluc reporter destabilization hit call [6] | kinase-Nluc reporter destabilization hit call [7] | kinase-Nluc reporter destabilization hit call [8] | number of time points [9] | number of time points [10] |
| --- | --- | --- | --- | --- | --- | --- | --- | --- | --- | --- |
| CCN1CCN(Cc2ccc(Nc3ncc(F)c(-c4cc(F)c5nc(C)n(C(C)C)c5c4)n3)nc2)CC1 [Abemaciclib (methanesulfonate)] (10 µM) | inactive: 0 | inactive: 0 | inactive: 0 | inactive: 0 | inactive: 0 | inactive: 0 | inactive: 0 | inactive: 0 | 2 | 0 |
| CC1(C)C(O[C@@H]2OC[C@@H](O)[C@H](O)[C@H]2O)CC[C@]23CC24CC[C@]2(C)[C@@H]([C@@]5(C)CC[C@@H](C(C)(C)O)O5)[C@H](O)C[C@@]2(C)C4C[C@@H](O[C@@H]2O[C@H](CO)[C@@H](O)[C@H](O)[C@H]2O)C13 (stereo not given in full) [Astragaloside IV] (10 µM) | inactive: 0 | inactive: 0 | inactive: 0 | inactive: 0 | inactive: 0 | inactive: 0 | inactive: 0 | inactive: 0 | 0 | 0 |

— the supplement of paper PMC12823440, “Inhibitors supercharge kinase turnover through native proteolytic circuits” (Nature, 2025)
